The DeepSol protein solubility set

Test: soluble on expression in E. coli; label from the status in PepcDB or PDB records

Sequence | soluble on expression in E. coli
AIAAAPVVAADSPVIENMTETAGGATENSAEAQKRPQFGTRFLTDPRQVFQHNAWDNVEWSAEQEEAALKKVQENSQPLPAEKQEEFDNRANEYWNDFYTIHENRFFKDRHWLFTEFPELAPQQKHLRGAEEKESLEHMLNGEDISLNPTHDEFPGASASYRILEVGCGVGNTVFPILKTNNDPGLFVYCCDFSSTAVDLVKSNPEYDPSRCHAFVHDMSDESGEYPMPDHSLDVIVLIFVLSALHPEKMQKSINRLGRLLKPGGVLLLRDYGRYDMAQLRFKKGRCLSENFYVRGDGTLVYFFTQDELHDLFSSAGLEKLQNLADRRLQVNRGKQLTMYRVWVQCKYRKVLAPT | soluble
ASTEKEEKMGTIIGIDLGTTYSCVGVFKNGRVEIIANDQGNRITPSYVAFSGDQGERLIGDAAKNQLTINPENTIFDAKRLIGRFYNEKTVQQDIKHWPFKIVDKSNKPNVEVKVGSETKQFTPEEVSAMVLTKMKQIAESYLGHEVKNAVVTVPAYFNDAQKQATKDAGSIAGLNVVRIINEPTAAAIAYGLDKKDGERNILVFDLGGGTFDVSLLTIDSGVFEVLATNGDTHLGGEDFDQRVMEYFIKLYKKKSGKDLRKDNRAVQKLRREVEKAKRALSTQHQTKIEIESLFDGEDFSETLTRAKFEELNMDLFRATLKPVQKVLEDADMKKTDVHEIVLVGGSTRIPKVQQLIKDYFNGKEPSRGINPDEAVAYGAAVQAGVIG | soluble
GAPEGPGPSGGAQGGSIHSGRIAAVHNVPLSVLIRPLPSVLDPAKVQSLVDTIREDPDSVPPIDVLWIKGAQGGDYFYSFGGCHRYAAYQQLQRETIPAKLVQSTLSDLRVYLGASTPDLQ | soluble
GSHMKDVQTETFSVAESIEEISKANEEITNQLLGISKEMDNISTRIESISASVQETTAGSEEISSATKNIADSAQQAASFADQSTQLAKEAGDALKKVIEVTRMISNSAKDVERVVESFQKGAEEITSFVETINAIAEQTNLLALNAAIEAARAGEAGRGFAVVADEIRKLAEESQQASENVRRVVNEIRSIAEDAGKVSSEITARVEEGTKLADEADEKLNSIVGAVERINEMLQNIAAAIEEQTAAVDEITTAMTENAKNAEEITNSVKEVNARLQEISASTEEVTSRVQTIRENVQMLKEIVARYK | soluble
MGHHHHHHSHMSVYSGKVLLQTTPPHVIGQLDKLIREVSTLDGVLEVRNEHFWTLGFGSLAGSVHVRIRRDANEQMVLAHVTNRLYTLVSTLTVQIFKDDWIRPALLSGPVAANVLNFSDHHVIPMPLLKGTDGLNPYVHFLWKINFFLFFDMESLSVAQAGVQWHDLGSLQPHLPGSSNSACLSLPSSWDYRHAPPHLPNFCIISKDGVLPCWPCWS | soluble
MGRKKIQITRIQDERNRQVTFTKRKFGLMKKAYELSVLCDCEIALIVFNSTNKLFQYASTDMDKVLLKYTEYNEPHESRTNNDIMEALNRKEGNQGGGNSDDESPGPSTSPVIQITMPAVVNGHSSNNSVASAASASAAAVAAAAAAVAAVEGTSSGAAAAAAALQASNAQRHHNLNLYQNLIFNPNYTRHLNQRNDPLSSTSVAPSSSSSKHLDFPPSTSFAYDTSRLHPIAAADADCDLVPSSRAAADQNIWSSALQQRPVSQPAPSISNSSTNGISNGTSSLLSPNVSSLNGHSVLDLGGPNLPYKLDPNTYVKMEPHSPPEKRPRITTEWRPQQLT | not soluble
MGSAIQDYFVKNRVGHSKPWESGKFKAADNFPDLSKHNNVMASQLTKELYEKYWDKVTPNGVTFDKCIQTGVDNPGNKFYGKKTGCVFGDEYSYECYKEFFDKCIEEIHHFKPSDKHPAPDLDHNKLVGGVFEDKYVKSCRIRCGRSVKGVCLPPAMSRAERRLVEKVVSDALGGLKGDLAGKYYPLTTMNEKDQEQLIEDHFLFEKPTGALLTTSGCARDWPDGRGIWHNNEKNFLVWINEEDHIRVISMQKGGDLKAVFSRFARGLLEVERLMKECGHGLMHNDRLGYICTCPTNMGTVVRASVHLRLAFLEKHPRFDEMLGKLRLGKRGTGGESSLATDSTYDISNWARLGKSERELVQVLVDGVNLLIACDKKLEAGQSIDDMIPK | soluble
MGSDKIHHHHHHMVIMEYKSIRQTLAMSSSTLKPQDAAEKEYENRLNGYSTYRSGIVFDGHEMFAVAFRELLNAMDSVRGMEVRVEALWNTLPPIARRAYLMELIGAEMQNTNTIENVHTTREEIADALDSAVADGPHKRLSELAKLFLGLSGEGAARLDLPQTLNDIRSIYDQVMDGELKDDQKPDGMLFRARTVSVYDGADRVIHKGAWPESEIQVQLTKWLALLSNETIPPLLRATMCHYAFECIHPFYDGNGRTGRFLLALQLSKSLSVPTAVSLSSAIAEAKGQYYKAFDEVQHPLNCSDVSLFCYRMIHFVATAQENIISVLSEKKAMLDAAKDNLERYADAHDVPELQRDMLFFLLQEELFDDTSNSISRRLMREWLGVGERKVSTALDALMDLGLLEAHGKRPIRYSLSDAARGEFLR | not soluble
MIYHFGGYDMTRPIPTSVSQFMAKVESLCGDQHPDWALNFKTSFTNTLETTLKTYEDGTSFLLTGDIPAMWLRDSTAQMKPYLFLAKEDEEIRKIIAGLVKRQFRYICIDPYANAFNEEANEKGHQTDHTQMNPWIWERKYEIDSLCYPIQLAYLLYRETGSTDQFNDDFHRGVELILDLWTVEQDHAQSPYLFERDTWRKEDTLTHAGKGSPVAPTGMTWSGFRPSDDACQYGYLIPSNMFAVVVLSYLEDLYNNLFHNESVATRAKQLKEAIQSGIADHALVQNSKGETIYAYEVDGLGQFSIMDDANIPSLLAAPYLGFCAKDDPIYLATRRTILSQENPYYYQGNAAAGIGSSHTPENYIWHIALALQGLTALDQDSKKEMLDLLVATDAGTHLMHEGFDVNDPYQYTREWFSWANMMFCELLLDYLGFSIAPLEHHHHHH | soluble
MKKRRSDMIKKGFDRAPHRSLLRAAGVKEEDFDKPFIAVVNSYIDIIPGHVHLQEFGRIVKEAIREAGGVPFEMNTIGVDDGIAMGHIGMRYSLPSREIIADSIETVISAHWFDGMVCIPNCDKITPGMMMAAMRLNIPTIFVSGGPMKAGVTKDGRKISLSSVFEGVGAYLGGTLDEKGLEELERYGCPTCGSCSGMFTANSMNCLAEALGLALPGNGTILAVDPARKELVRQSAKQLMYLIEHDIKPRDIVTEKAIDNAFALDMALGGSTNTVLHTLAIANEAGIDYSLERINEIAARVPHLAKLAPASDVHYIEDLHEAGGVSAVLNELAKKEGTLHLDTLTVTGKTLGENIAGCEVKNYDVIRPIDNPYSETGGLAILFGNLAPDGAVIKTGAVQGGITRHEGPAIVFDSQEEALEGIASGKIKPGHVVVIRYEGPKGGPGMPEMLAPTSQIVGMGLGTKVALVTDGRFSGASRGLSVGHVSPEAAEGGPIAFIQDGDIIEIDTVKRTINVKLSDEELERRKANWKGFEPKVKTGYLARYSKHVTSASTGGIMKI | not soluble
MKQAFRVALGFLVLWASVLHAEVRIEITQGVDSARPIGVVPFKWMGPGTPPEEIGAIVGADLRNSGKFNPIDAARMPQQPSTAAEVTPAAWTALGIDAVVVGQVQPSADGSYVVSYQLVDTSGSAGSILAQNQYKVTKQWLRYSAHTVSDEVFEKLTGIKGAFRTRIAYVVKTNGGKFPHELRVSDYDGYNQFVVHRSPEPLMSPAWSPDGSKIAYVTFESGKSALVIQTLANGAIRQVASFPRHNGAPAFSPDGTKLAFALSKSGSLNLYVMDLASGQISQVTDGRSNNTEPSWFPDSQNLAYTSDQGGRPQVYKVNINGGVPQRITWEGSQNQNADVSPDGKFLVLVSSNGGAQHIAKQDLETGAVQVLTDTLLDETPSIAPNGTMVIYSSTQGLGSVLQLVSTDGRFKARLPATDGQVKFPAWSPYL | not soluble
MLKVFADRGGTFTDIVTVTNNQAIIDRLSRHPERFLIVTLPNQEWIIVYKVLSENPEQYQDAAIQGIRDIMGISSNEPIPTEAIEVVKMGTTVATNALLERKGDRVVLIITKGFKDALRIGYQNRPNIFARHIVLPTMLYEQVIEIDERYDAYGNELTPVNIQQAENDLQAVYNTGIRSCAIVFMHSDRYPKHEQQIAQIAQEIG | not soluble
MNIGKIPVTVLSGYLGAGKTTVLNHVLANKEGMKVAVIVNDMSEVNIDATLVKQGGFTRTDEKLVELQNGCICCTLREDLIIEVEKLARLGNIDYILIESTGISEPIPVAQTFTYLDEELGIHLGDRCTLDTMVTVVDANRFWEDYESGESLLDRKQTDDEADTREVVDLLIDQIEFANVILLNKVDLVEEDDVRELTAVLHKLNPEAEILPVSHGRVDLNRILHTGLFDFDKASQGAGWIKELNEEHTPETEEYGISSFVYKRQRPFHPERWMEWLENWPQEVVRAKGFFWLATRNEMAGLISQAGTSIVIQGAGLWVAAYDKEEQQQVLAEEPELAARWHRKYGDRMNELVFIGLDMDRKEIEKSLDTCLLTDEELGQDWSALPDPLPSFTEQ | not soluble
MRTPQLPEQVVRMKYFAMPPMTIQEALEHLEMVDHDFYVFRNRDTGEINVVYERNHGGYGVIQPRPTLEHHHHHH | not soluble
MSLDEVQNVDDQHLLLHDQTVIRKGPISMTKNPLNLPCQKELVGAVMNPTEVFCSVPGRLSLLSSTSKYKVTVAEVQRRLSPPECLNASLLGGVLRRAKSKNGGRSLREKLDKIGLNLPAGRRKAAHVTLLTSLVEGEAVHLARDFAYVCEAEFPSKPVAEYLTRPHLGGRNEMAARKNMLLAAQQLCKEFTELLSQDRTPHGTSRLAPVLETNIQNCLSHFSLITHGFGSQAICAAVSALQNYIKEALIVIDKSYMNPGDQSPADSNKTLEKMEKHREGHHHHHH | soluble
MSLNQRLPVTVLSGFLGAGKSTLLNHVLKNRENRRVAVIVNDMSEINIDGSEVQRDVSLNRAEERLVEMSNGCICCTLREDLLEEVGRLAREGRFDYLLIESTGISEPMPVAETFTFRDELDRSLSDVARLDTMVTVVDGMNFLRDYQEAASLASRGETLGEEDQRSITDLLIDQVEFADVILVSKIDLISSEQREELLAILRQLNAEAEILPMVMGQVPLAKILDTGRFDFDRAASAPGWLKELRGEHLPETEEYGIASMAYRARRPFHPARFHAFLHNPLKQGRLLRSKGFFWLASRPREAGSWSQAGGLMRYGLAGRWWRFVPTGQWPQDEEGLRAIMRHWEEGVGDCRQELVFIGQNLDFAALRAALDACLLDDAEMNLGIPGWQGLDDPFEDWGHAEGHHHHHH | soluble
MSLSDLAKRIVQAADIVTVALDELLPRADGPESRLTEAMRYAALGPGKRLRPFFALETGKMFDLPERPVLRAACALECIHAYSLVHDDLPAMDDDDVRRGRPTVHKQYDEATAILAGDALQTAAFEIMAHPDTHDDGHVRSELVRKLAIASGARGMCGGQMIDLLGVRDDLGAVARMQRLKTGALIAFAFEIPLIIARAKESERSALMAFAQDLGLAYQIVDDILDAEGDEETLGKAAGGKDAAKGKANYVTLLGLDAAKERVTLLAEQTRSHLEIFGERAEHLRASVDFVLDRRNEGHHHHHH | soluble
MSTLTLPSDLRLPVTVFSGFLGAGKTTLLNRLLNNRDGLRVAVIVNDMSEVNIDAQLVRDGGAALSRTDETLVEFSNGCICCTLRDDLSKEVKRLALEQRYDYLLIESTGIGEPMPVAATFAVRDADGFCLSDVARLDTMVTVVDGSQFTALFSSMNTLADLGQQADSDDTRSLADLLGQQIEFADTIVISKCDLIDATQLARVRAVVRGLNRDAQIIEAHLGEVPLPQLVGTGRFDFTRAQLAPGWMRELRGEHTPETEEYGITSFVYRARRPFHPLRFNHLLAHGLSGVIRSKGFFWLASRMDWVGELSSVGSATRTQAAGFWYAARHRVDVHEENMPPQIGIAPLPYTELGWQRQQNDCWTAPLPAPHEVSDPGEYVAMQRLWHPQWGDRRQELAVIGLDMDKDVARNELDACLLSNEELRMGPMYWSALPDPFPQWRRLEHHHHHH | not soluble
MVDVPRNFRLLEELEEGQKGKGDGNISWGLEDDSDMTLTRWTASIIGPPRTPYESRIYNLQIQCGGNYPREPPTVRFTTKVHMVGVNQSNGVIDKRNLTTLRNWSNSYMIKTVLEDIRKNMMMAKENLKLQQPAEGAMF | not soluble
